Measurements taken from PubChem BioAssay AID248 (DTP/NCI, 2004).
The list is a part of this screen's results and no random one: it gathers tests that were run many times, whatever their T/C, doses with no T/C, and many T/C values between a quarter and a half above the control. Other doses and runs of a compound stand elsewhere. T/C: endpoint of the treated group in % of that of the vehicle group. Some entries give survivors of the animals treated and no T/C: the source holds a T/C of zero for them, seemingly a mark for toxic or unscored doses. Some doses without a T/C left all or most animals alive at the check, yet need not have been tolerated: the source hardly ever lists a survival T/C far under the control, and the zero likely stands for such cases as well. Survivors were counted at the toxicity check, usually on the fifth day, unless a day is given; later deaths do not show. Schedules are NCI's codes, read here as Q, the interval in days (D) or hours (H), X, the number of doses. Some schedule codes hold Z or #, which are not explained here. For survival time, the PubChem record calls one and a half times the control and up active, and a quarter to a half above the control has no call in these data; cut-offs in other NCI protocols can differ.

Test system: L1210 leukemia ip in BDF1 mice, survival T/C
Test: NCI In Vivo Anticancer Drug Screen. Data for tumor model L1210 Leukemia (intraperitoneal) in B6D2F1 (BDF1) mice
Conditions: T/C endpoint: mean survival time, higher T/C = longer survival
[1] = dose: 100.0 mg/kg/injection, schedule: Q01DX Z (ip), vehicle: saline
[2] = dose: 200.0 mg/kg/injection, schedule: Q04DX002 (ip), vehicle: saline with Tween-80
[3] = dose: 400.0 mg/kg/injection, schedule: Q04DX002 (ip), vehicle: saline with Tween-80
[4] = dose: 100.0 mg/kg/injection, schedule: Q01DX009 (ip), vehicle: Klucel (hydroxypropylcellulose) (HPC)
[5] = dose: 200.0 mg/kg/injection, schedule: Q01DX009 (ip), vehicle: Klucel (hydroxypropylcellulose) (HPC)
[6] = dose: 400.0 mg/kg/injection, schedule: Q01DX009 (ip), vehicle: Klucel (hydroxypropylcellulose) (HPC)
[7] = dose: 100.0 mg/kg/injection, schedule: Q04DX003 (ip), vehicle: saline with Tween-80
[8] = dose: 200.0 mg/kg/injection, schedule: Q04DX003 (ip), vehicle: saline with Tween-80

Nc1nc(N)c2nc(CNc3ccc(C(=O)NCCCC(=O)O)cc3)cnc2n1 (tested in a mixture with another compound) was tested, and the survivor count (dose: 50.0 mg/kg/injection, schedule: Q01DX001 (ip), vehicle: Klucel (hydroxypropylcellulose) (HPC)) was 2 of 6, the survivor count (dose: 200.0 mg/kg/injection, schedule: Q01DX001 (ip), vehicle: Klucel (hydroxypropylcellulose) (HPC)) was 2 of 6 and the survivor count (dose: 400.0 mg/kg/injection, schedule: Q01DX001 (ip), vehicle: Klucel (hydroxypropylcellulose) (HPC)) was 0 of 6.
In the case of CC1C(C)N1P(I)(c1ccccc1)(c1ccccc1)c1ccccc1 (stereo not given), the survivor count (dose: 5.0 mg/kg/injection, schedule: Q01DX001 (ip), vehicle: carboxymethylcellulose (CMC)) is reported as 1 of 6, the survivor count (dose: 10.0 mg/kg/injection, schedule: Q01DX001 (ip), vehicle: carboxymethylcellulose (CMC)) is reported as 2 of 6 and the survivor count (dose: 15.0 mg/kg/injection, schedule: Q01DX001 (ip), vehicle: carboxymethylcellulose (CMC)) is reported as 2 of 6. For the same compound, the survivor count (dose: 30.0 mg/kg/injection, schedule: Q01DX001 (ip), vehicle: carboxymethylcellulose (CMC)) was 0 of 6, the survivor count (dose: 60.0 mg/kg/injection, schedule: Q01DX001 (ip), vehicle: carboxymethylcellulose (CMC)) was 0 of 6 and the survivor count (dose: 75.0 mg/kg/injection, schedule: Q01DX001 (ip), vehicle: carboxymethylcellulose (CMC)) was 0 of 6. The survivor count (dose: 150.0 mg/kg/injection, schedule: Q01DX001 (ip), vehicle: carboxymethylcellulose (CMC)) was 0 of 6 and the survivor count (dose: 300.0 mg/kg/injection, schedule: Q01DX001 (ip), vehicle: carboxymethylcellulose (CMC)) was 0 of 6.
In the case of CCCCCN1CCCC(OC(=O)N(C)C)C1 (stereo not given), the survivor count (dose: 100.0 mg/kg/injection, schedule: Q04DX002 (ip), vehicle: saline) is reported as 1 of 3, the survivor count (dose: 200.0 mg/kg/injection, schedule: Q04DX002 (ip), vehicle: saline) is reported as 1 of 3 and the survivor count (dose: 400.0 mg/kg/injection, schedule: Q04DX002 (ip), vehicle: saline) is reported as 0 of 3.
In the case of COc1nc(C)c(C)[n+]([O-])n1, the survivor count (dose: 100.0 mg/kg/injection, schedule: Q01DX001 (ip), vehicle: saline with Tween-80) is reported as 3 of 6, the survivor count (dose: 200.0 mg/kg/injection, schedule: Q01DX001 (ip), vehicle: saline with Tween-80) is reported as 0 of 6 and the survivor count (dose: 400.0 mg/kg/injection, schedule: Q01DX001 (ip), vehicle: saline with Tween-80) is reported as 0 of 6.
O=C(NCCCCC(NC(=O)c1ccccc1)C(=O)NCCCCCCCCCCNC(=O)C(CCCCNC(=O)c1ccccc1)NC(=O)c1ccccc1)c1ccccc1 (stereo not given) was tested, and the survivor count [1] was 5 of 6 and the survivor count (dose: 300.0 mg/kg/injection, schedule: Q01DX Z (ip), vehicle: saline) was 6 of 6.
For c1ccc(C(CCN2CCCC2)c2ccccn2)cc1 (stereo not given), the survivor count [1] was 0 of 6.
O=C1C=Cc2ccccc2/C1=C/c1nc(-c2ccc(Cl)cc2)oc1O was tested, and the survivor count (dose: 400.0 mg/kg/injection, schedule: Q04DX002 (ip), vehicle: Klucel (hydroxypropylcellulose) (HPC)) was 3 of 3.
CCC(=O)Oc1ccc(/C=N/NC(N)=S)nc1 was tested, and the T/C [2] was 129 % of control and the T/C [3] was 129 % of control.
For [Cl][Hg][c]1cccs1, the survivor count (dose: 50.0 mg/kg/injection, schedule: Q01DX009 (ip), vehicle: Klucel (hydroxypropylcellulose) (HPC)) was 0 of 6, the survivor count [4] was 0 of 6 and the survivor count [5] was 0 of 6. For the same compound, the survivor count [6] was 0 of 6.
O=C(Nc1cccc([N+](=O)[O-])c1)c1ccc(Cl)c(Cl)c1 was tested, and the survivor count [7] was 3 of 3.
CC(=O)N=C1C=C(NC(C)=O)C(=O)c2ncccc21 was tested, and the survivor count [8] was 1 of 6.
For COc1cc(N/C(N)=N\C(N)=NC(C)C)cc(OC)c1OC, the survivor count (dose: 400.0 mg/kg/injection, schedule: Q04DX003 (ip), vehicle: saline) was 4 of 6.
For COc1cc(C=Nc2cc(Cl)c(O)c(Cl)c2)ccc1N(CCCl)CCCl, the T/C (dose: 3.2 mg/kg/injection, schedule: Q01DX009 (ip), vehicle: carboxymethylcellulose (CMC)) was 137 % of control, the T/C (dose: 4.8 mg/kg/injection, schedule: Q01DX009 (ip), vehicle: carboxymethylcellulose (CMC)) was 146 % of control and the T/C (dose: 7.3 mg/kg/injection, schedule: Q01DX009 (ip), vehicle: carboxymethylcellulose (CMC)) was 136 % of control. The T/C (dose: 8.0 mg/kg/injection, schedule: Q01DX009 (ip), vehicle: carboxymethylcellulose (CMC)) was 130 % of control, the survivor count (dose: 16.6 mg/kg/injection, schedule: Q01DX009 (ip), vehicle: carboxymethylcellulose (CMC)) was 0 of 6 and the T/C (dose: 25.0 mg/kg/injection, schedule: Q01DX001 (ip), vehicle: carboxymethylcellulose (CMC)) was 126 % of control. The survivor count (dose: 25.0 mg/kg/injection, schedule: Q01DX009 (ip), vehicle: carboxymethylcellulose (CMC)) was 0 of 6, the T/C (dose: 37.5 mg/kg/injection, schedule: Q01DX001 (ip), vehicle: carboxymethylcellulose (CMC), evaluated on day 30) was 127 % of control and the T/C (dose: 37.5 mg/kg/injection, schedule: Q01DX001 (ip), vehicle: carboxymethylcellulose (CMC), run until all animals had died) was 142 % of control. The survivor count (dose: 37.5 mg/kg/injection, schedule: Q01DX009 (ip), vehicle: carboxymethylcellulose (CMC)) was 0 of 6, the survivor count (dose: 100.0 mg/kg/injection, schedule: Q01DX001 (ip), vehicle: carboxymethylcellulose (CMC)) was 0 of 4 and the survivor count (dose: 200.0 mg/kg/injection, schedule: Q01DX001 (ip), vehicle: carboxymethylcellulose (CMC)) was 0 of 4. The survivor count (dose: 400.0 mg/kg/injection, schedule: Q01DX001 (ip), vehicle: carboxymethylcellulose (CMC)) was 0 of 4.
CCCCCCCCCC[n+]1cccc(C(N)=O)c1 was tested, and the survivor count [7] was 0 of 6, the survivor count [8] was 0 of 6 and the survivor count (dose: 400.0 mg/kg/injection, schedule: Q04DX003 (ip), vehicle: saline with Tween-80) was 0 of 6.
C=CCc1cc(OC)cc(C(=O)c2cccc(OC)c2C#N)c1OC was tested, and the survivor count (dose: 100.0 mg/kg/injection, schedule: Q04DX002 (ip), vehicle: other) was 3 of 3.
For CC(=O)[O][Sn]([CH2]C1CCCC1)([CH2]C1CCCC1)[CH2]C1CCCC1, the survivor count (dose: 6.25 mg/kg/injection, schedule: Q04DX002 (ip), vehicle: saline with Tween-80) was 2 of 3, the survivor count (dose: 12.5 mg/kg/injection, schedule: Q04DX002 (ip), vehicle: saline with Tween-80) was 3 of 3 and the survivor count (dose: 25.0 mg/kg/injection, schedule: Q04DX002 (ip), vehicle: saline with Tween-80) was 1 of 3. The survivor count (dose: 100.0 mg/kg/injection, schedule: Q04DX002 (ip), vehicle: saline with Tween-80) was 0 of 3, the survivor count [2] was 0 of 3 and the survivor count [3] was 0 of 3.
C[N+](C)(C)/N=C1\CC2CCC1C2 (stereo not given) was tested, and the survivor count (dose: 400.0 mg/kg/injection, schedule: Q01DX001 (ip), vehicle: saline) was 0 of 4.
For COC1OC(COS(=O)(=O)c2ccc(C)cc2)C(OC(=O)c2ccccc2)C(OC(=O)c2ccccc2)C1OS(=O)(=O)c1ccc(C)cc1 (stereo not given), the T/C (dose: 100.0 mg/kg/injection, schedule: Q04DX002 (ip), vehicle: Klucel (hydroxypropylcellulose) (HPC)) was 130 % of control.
CC1(C)C2CCC1(CS(=O)(=O)O)C(=O)C2Br.[Ag] (stereo not given) was tested, and the survivor count (dose: 25.0 mg/kg/injection, schedule: Q01DX009 (ip), vehicle: saline with Tween-80) was 6 of 6 and the survivor count (dose: 50.0 mg/kg/injection, schedule: Q01DX009 (ip), vehicle: saline with Tween-80) was 2 of 6.
CCCCCCCCCCCCCCCCCC(=O)N/N=C/c1ccccc1OC was tested, and the survivor count [4] was 6 of 6, the survivor count [5] was 6 of 6 and the survivor count [6] was 5 of 6.
